{"source": "PubChem BioAssay AID1508597 (Cure First, 2020)", "aim": "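Knock-downs altering ovarian cancer cell survival with or without PARP inhibitor rucaparib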 (primary screen)", "cells": "human ovarian carcinoma lines grown from tumours: OCI-P5x (papillary serous) and OCI-C5x (clear cell)", "knock-down reagent": "siRNA pool against human genes, 1.25 pmol siRNA per well", "time to read-out": "72 h or 96 h, depending on the cell culture", "challenge": "rucaparib 20 µM (about IC30) or vehicle, present until read-out", "rucaparib or vehicle": "Vehicle", "cell line": "OCI-P5x (serous)", "measured": "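Luminescent ATP-based viability assay read 72 or 96 h after transfection, depending on culture, given as normalised percent viability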", "reading the numbers": "viability, normalised: higher = more viable cells remaining", "active means": "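Active when normalised viability falls below 80 percent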", "calls": "active = viability under 80%; inactive = viability 80% or more", "note": "This is an unselected part of the about 2,100 reagents, under one of the conditions tested. 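Calls flag viability under 80% in either arm, not effects specific to rucaparib; the reference for percent is not stated.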 A number with no mark means an inactive call. A reagent listed more than once was tested more than once; the source does not tell the runs apart. The record does not give: the 100% reference."}
{"Target gene":"GDPD4","technical replicate":"1","viability, normalised (%)":"40.1 (active)"}
{"Target gene":"GDPD4","technical replicate":"2","viability, normalised (%)":"42.3 (active)"}
{"Target gene":"GDPD4","technical replicate":"3","viability, normalised (%)":"48.8 (active)"}
{"Target gene":"CHMP6","technical replicate":"1","viability, normalised (%)":"61 (active)"}
{"Target gene":"CHMP6","technical replicate":"2","viability, normalised (%)":"68 (active)"}
{"Target gene":"CHMP6","technical replicate":"3","viability, normalised (%)":"68.5 (active)"}
{"Target gene":"BCL2","technical replicate":"1","viability, normalised (%)":"63.5 (active)"}
{"Target gene":"BCL2","technical replicate":"2","viability, normalised (%)":"76.2 (active)"}
{"Target gene":"BCL2","technical replicate":"3","viability, normalised (%)":"76.4 (active)"}
{"Target gene":"SNRK","technical replicate":"1","viability, normalised (%)":"64.2 (active)"}
{"Target gene":"SNRK","technical replicate":"2","viability, normalised (%)":"56.8 (active)"}
{"Target gene":"SNRK","technical replicate":"3","viability, normalised (%)":"61.9 (active)"}
{"Target gene":"IP6K1","technical replicate":"1","viability, normalised (%)":"71.3 (active)"}
{"Target gene":"IP6K1","technical replicate":"2","viability, normalised (%)":"61.9 (active)"}
{"Target gene":"IP6K1","technical replicate":"3","viability, normalised (%)":"61.9 (active)"}
{"Target gene":"RIOX1","technical replicate":"1","viability, normalised (%)":"69.3 (active)"}
{"Target gene":"RIOX1","technical replicate":"2","viability, normalised (%)":"62.2 (active)"}
{"Target gene":"RIOX1","technical replicate":"3","viability, normalised (%)":81}
{"Target gene":"EED","technical replicate":"1","viability, normalised (%)":"28.9 (active)"}
{"Target gene":"EED","technical replicate":"2","viability, normalised (%)":"31 (active)"}
{"Target gene":"EED","technical replicate":"3","viability, normalised (%)":"70.7 (active)"}
{"Target gene":"ZFYVE9","technical replicate":"1","viability, normalised (%)":"64.3 (active)"}
{"Target gene":"ZFYVE9","technical replicate":"2","viability, normalised (%)":94.2}
{"Target gene":"ZFYVE9","technical replicate":"3","viability, normalised (%)":"55.2 (active)"}
{"Target gene":"CDH1","technical replicate":"1","viability, normalised (%)":"59.6 (active)"}
{"Target gene":"CDH1","technical replicate":"2","viability, normalised (%)":"62.8 (active)"}
{"Target gene":"CDH1","technical replicate":"3","viability, normalised (%)":"56.1 (active)"}

Not a retest: entries from further up.
{"Target gene":"SNRK","technical replicate":"1","viability, normalised (%)":"64.2 (active)"}
{"Target gene":"SNRK","technical replicate":"2","viability, normalised (%)":"56.8 (active)"}

Additional results:
{"Target gene":"RING1","technical replicate":"1","viability, normalised (%)":"52.6 (active)"}
{"Target gene":"RING1","technical replicate":"2","viability, normalised (%)":"61.8 (active)"}
{"Target gene":"RING1","technical replicate":"3","viability, normalised (%)":"78 (active)"}
{"Target gene":"NTRK1","technical replicate":"1","viability, normalised (%)":"61.6 (active)"}
{"Target gene":"NTRK1","technical replicate":"1","viability, normalised (%)":96}
{"Target gene":"NTRK1","technical replicate":"1","viability, normalised (%)":"59.1 (active)"}
{"Target gene":"NTRK1","technical replicate":"2","viability, normalised (%)":"49.1 (active)"}
{"Target gene":"NTRK1","technical replicate":"2","viability, normalised (%)":"74.5 (active)"}
{"Target gene":"NTRK1","technical replicate":"2","viability, normalised (%)":81.5}
{"Target gene":"NTRK1","technical replicate":"3","viability, normalised (%)":"76.1 (active)"}
{"Target gene":"NTRK1","technical replicate":"3","viability, normalised (%)":93.5}
{"Target gene":"NTRK1","technical replicate":"3","viability, normalised (%)":"75.1 (active)"}
{"Target gene":"DGUOK","technical replicate":"1","viability, normalised (%)":99.9}
{"Target gene":"DGUOK","technical replicate":"2","viability, normalised (%)":86.2}
{"Target gene":"DGUOK","technical replicate":"3","viability, normalised (%)":"71.8 (active)"}
